# For some assays here: For at least one entry, the source does not settle the construct or the ends of the probe. The direction of at least one scale is not stated here. For some assays here: Where a protein sequence is shown, tags need not be part of it.
# By UniProt entry, the sequences of proteins in these tests, tags left out. Where a name states a change or a piece, a line headed by the entry shows the natural chain unless it says otherwise.
# UniProt Q9SP32: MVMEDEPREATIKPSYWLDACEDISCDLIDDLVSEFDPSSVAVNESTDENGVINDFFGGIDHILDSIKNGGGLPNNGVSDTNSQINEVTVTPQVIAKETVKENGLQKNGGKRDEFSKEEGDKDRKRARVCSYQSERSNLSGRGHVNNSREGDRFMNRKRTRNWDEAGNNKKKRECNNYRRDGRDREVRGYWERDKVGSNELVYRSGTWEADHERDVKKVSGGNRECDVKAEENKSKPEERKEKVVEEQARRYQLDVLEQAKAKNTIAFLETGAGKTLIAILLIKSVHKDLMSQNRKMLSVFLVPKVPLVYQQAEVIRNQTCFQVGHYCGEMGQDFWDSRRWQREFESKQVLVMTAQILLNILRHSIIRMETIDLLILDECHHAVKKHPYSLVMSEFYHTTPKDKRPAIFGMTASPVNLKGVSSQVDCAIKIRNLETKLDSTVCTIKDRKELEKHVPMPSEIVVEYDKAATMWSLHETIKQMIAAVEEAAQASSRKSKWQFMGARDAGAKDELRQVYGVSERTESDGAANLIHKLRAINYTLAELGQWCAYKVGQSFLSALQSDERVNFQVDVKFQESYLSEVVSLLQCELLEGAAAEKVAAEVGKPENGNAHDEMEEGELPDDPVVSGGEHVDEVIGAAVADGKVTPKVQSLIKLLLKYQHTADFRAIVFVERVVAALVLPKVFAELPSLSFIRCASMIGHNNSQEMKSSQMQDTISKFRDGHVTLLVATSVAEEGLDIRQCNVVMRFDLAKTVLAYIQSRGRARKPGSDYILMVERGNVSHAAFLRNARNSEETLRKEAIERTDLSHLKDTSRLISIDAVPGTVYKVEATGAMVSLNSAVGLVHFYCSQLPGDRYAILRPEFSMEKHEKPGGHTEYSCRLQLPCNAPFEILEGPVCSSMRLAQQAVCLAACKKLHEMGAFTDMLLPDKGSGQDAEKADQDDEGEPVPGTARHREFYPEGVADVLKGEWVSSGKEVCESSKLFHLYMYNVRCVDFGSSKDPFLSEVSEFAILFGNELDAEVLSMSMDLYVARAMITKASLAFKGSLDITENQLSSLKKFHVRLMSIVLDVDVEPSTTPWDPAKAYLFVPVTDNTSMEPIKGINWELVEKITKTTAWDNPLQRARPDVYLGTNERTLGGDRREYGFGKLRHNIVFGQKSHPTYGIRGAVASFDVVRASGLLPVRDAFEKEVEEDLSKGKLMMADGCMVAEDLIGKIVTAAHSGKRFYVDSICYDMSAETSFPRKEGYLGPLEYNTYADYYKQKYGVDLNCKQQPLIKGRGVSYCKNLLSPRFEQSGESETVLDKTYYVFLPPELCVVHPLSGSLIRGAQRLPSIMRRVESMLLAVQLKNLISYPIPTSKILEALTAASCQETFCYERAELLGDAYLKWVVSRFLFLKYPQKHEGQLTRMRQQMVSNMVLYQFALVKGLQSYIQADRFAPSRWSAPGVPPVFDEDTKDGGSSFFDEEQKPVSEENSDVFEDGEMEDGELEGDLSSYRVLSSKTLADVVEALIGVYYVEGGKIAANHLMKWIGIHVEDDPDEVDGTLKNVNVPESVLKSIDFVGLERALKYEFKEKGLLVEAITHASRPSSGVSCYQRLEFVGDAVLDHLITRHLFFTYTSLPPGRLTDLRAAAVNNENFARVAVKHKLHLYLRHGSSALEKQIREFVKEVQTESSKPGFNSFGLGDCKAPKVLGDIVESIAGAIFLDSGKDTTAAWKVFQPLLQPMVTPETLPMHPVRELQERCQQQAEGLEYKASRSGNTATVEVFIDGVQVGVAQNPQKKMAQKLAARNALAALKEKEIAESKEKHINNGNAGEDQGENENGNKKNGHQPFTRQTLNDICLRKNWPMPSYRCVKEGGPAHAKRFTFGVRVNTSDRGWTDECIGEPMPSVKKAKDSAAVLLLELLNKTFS
# Key:
# [1] = target: DCL1 (Arabidopsis thaliana) (UniProt Q9SP32); assay: SPR; conditions: 150 mM NaCl; SPR (Biacore T100): 20 mM Tris-HCl pH 7.0, 50 or 150 mM NaCl, 2 mM β-ME (0.005% P20 for SE variants); proteins 42-43 nM (Fig 2E), SE 20 nM (Fig 4); recombinant protein; residues 1-1909; label: 5'-biotin on strand 1
# [2] = target: T1, SE (untagged) (Arabidopsis thaliana) (UniProt Q9ZVD0); assay: SPR; conditions: 150 mM NaCl, nearly negligible, stated not to bind; SPR (Biacore T100): 20 mM Tris-HCl pH 7.0, 50 or 150 mM NaCl, 2 mM β-ME (0.005% P20 for SE variants); proteins 42-43 nM (Fig 2E), SE 20 nM (Fig 4); recombinant protein; residues 1-720; label: 5'-biotin on strand 1; counted as no binding
# T1 sequence (looked up): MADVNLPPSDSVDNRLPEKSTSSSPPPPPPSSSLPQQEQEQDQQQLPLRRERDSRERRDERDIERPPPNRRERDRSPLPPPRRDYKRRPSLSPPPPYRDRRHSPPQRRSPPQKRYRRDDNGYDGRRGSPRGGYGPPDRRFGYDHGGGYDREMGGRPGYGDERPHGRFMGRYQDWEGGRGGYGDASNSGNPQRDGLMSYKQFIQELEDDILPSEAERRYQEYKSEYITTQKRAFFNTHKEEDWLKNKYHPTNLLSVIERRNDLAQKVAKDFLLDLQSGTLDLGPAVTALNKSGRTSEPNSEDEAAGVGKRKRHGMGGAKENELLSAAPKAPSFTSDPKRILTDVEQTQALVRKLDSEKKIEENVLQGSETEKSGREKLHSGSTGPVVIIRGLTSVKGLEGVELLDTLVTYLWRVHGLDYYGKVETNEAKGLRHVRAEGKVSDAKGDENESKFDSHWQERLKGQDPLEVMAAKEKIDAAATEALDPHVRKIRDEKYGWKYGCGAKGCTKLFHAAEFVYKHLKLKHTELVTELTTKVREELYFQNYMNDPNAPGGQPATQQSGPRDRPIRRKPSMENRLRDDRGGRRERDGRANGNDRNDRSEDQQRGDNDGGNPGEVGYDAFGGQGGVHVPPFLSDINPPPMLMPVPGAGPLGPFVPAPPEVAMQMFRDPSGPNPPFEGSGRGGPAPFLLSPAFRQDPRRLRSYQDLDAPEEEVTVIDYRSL
sequence,measurement,setting,value
CAACCCAAGAUAGAUCAUGCAGGCAGCUUCAUCAGAUGCCGCUCCCUCUUUUUUUCUCUA / GCUCCCUCUUUUUUUCUCUAGGCAUCUGAUGAAGCUGCCUGCAUGAUCUAUCUUGGGUUG [forked-RNA],binding signal (fold decrease in RUmax vs 50 mM NaCl),[1],4
same,binding signal (fold decrease in RUmax vs 50 mM NaCl),[2],18

# From article PMC3799435, “Dissecting the interactions of SERRATE with RNA and DICER-LIKE 1 in Arabidopsis microRNA precursor processing” (Nucleic Acids Research, 2013)
